Test results from article PMC10185471.
No constants are given. Whether binding was seen depends on the method and setting. Binding seen in cells or lysates may run through a third protein. Some entries that bind do so weakly or less than the wild type.

Amino acid sequences for entries named in this document (tags omitted). A change or cut given only in a name is not applied to a line headed by its entry. Residues count along the entry.
UniProt Q9Z2G6, residues 22-790: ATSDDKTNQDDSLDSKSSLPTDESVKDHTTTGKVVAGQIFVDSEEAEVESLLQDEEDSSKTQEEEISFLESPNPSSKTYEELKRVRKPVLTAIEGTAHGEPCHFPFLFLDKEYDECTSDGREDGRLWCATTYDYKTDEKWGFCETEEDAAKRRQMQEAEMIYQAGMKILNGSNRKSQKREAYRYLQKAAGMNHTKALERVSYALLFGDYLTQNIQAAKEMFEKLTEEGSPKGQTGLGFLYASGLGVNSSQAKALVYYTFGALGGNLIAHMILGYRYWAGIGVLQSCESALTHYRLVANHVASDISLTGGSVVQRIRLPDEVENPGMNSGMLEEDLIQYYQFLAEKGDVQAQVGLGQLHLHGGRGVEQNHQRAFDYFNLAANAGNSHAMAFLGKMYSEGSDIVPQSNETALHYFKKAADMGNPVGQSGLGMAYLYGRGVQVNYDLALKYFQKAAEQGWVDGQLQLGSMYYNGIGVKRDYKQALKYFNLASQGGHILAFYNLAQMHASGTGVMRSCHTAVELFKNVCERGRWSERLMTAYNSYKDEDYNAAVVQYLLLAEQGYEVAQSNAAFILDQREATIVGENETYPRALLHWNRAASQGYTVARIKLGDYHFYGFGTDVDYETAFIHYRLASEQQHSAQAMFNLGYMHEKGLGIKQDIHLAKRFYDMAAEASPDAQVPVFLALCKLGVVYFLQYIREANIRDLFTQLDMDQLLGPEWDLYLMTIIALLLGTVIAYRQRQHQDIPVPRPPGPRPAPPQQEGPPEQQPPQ

Target: SEL1L (suppressor of lin-12-like), endogenous, mouse (mouse (endogenous in primary macrophages and RAW 264.7)) (UniProt Q9Z2G6)
Assay: co-IP; immunoprecipitation of endogenous SEL1L (antibody and Protein A agarose) from lysates of mouse primary macrophages in the basal state; lysis buffer 150 mM NaCl, 1 mM EDTA, 50 mM Tris-HCl pH 7.5, 1% Triton X-100 or NP-40; 16 h at 4 °C; immunoblot; IgG control

B1: CALNEXIN, endogenous, mouse (protein, UniProt P35564 21-591)
chain: HDGHDDDAIDIEDDLDDVIEEVEDSKSKSDASTPPSPKVTYKAPVPTGEVYFADSFDRGSLSGWILSKAKKDDTDDEIAKYDGKWEVDEMKETKLPGDKGLVLMSRAKHHAISAKLNKPFLFDTKPLIVQYEVNFQNGIECGGAYVKLLSKTAELSLDQFHDKTPYTIMFGPDKCGEDYKLHFIFRHKNPKTGVYEEKHAKRPDADLKTYFTDKKTHLYTLILNPDNSFEILVDQSVVNSGNLLNDMTPPVNPSREIEDPEDRKPEDWDERPKIADPDAVKPDDWDEDAPSKIPDEEATKPEGWLDDEPEYIPDPDAEKPEDWDEDMDGEWEAPQIANPKCESAPGCGVWQRPMIDNPNYKGKWKPPMIDNPNYQGIWKPRKIPNPDFFEDLEPFKMTPFSAIGLELWSMTSDIFFDNFIISGDRRVVDDWANDGWGLKKAADGAAEPGVVLQMLEAAEERPWLWVVYILTVALPVFLVILFCCSGKKQSNAMEYKKTDAPQPDVKDEEGKEEEKNKRDEEEEEEKLEEKQKSDAEEDGVTGSQDEEDSKPKAEEDEILNRSPRNRKPRRE
binding: binds
